Values from PubChem BioAssay AID1259308 (NCATS, 2017)

Test: 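Genes whose loss raises luciferase production in HEK293 cells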 (primary screen)
Cell system: human HEK293 embryonic kidney cells stably expressing firefly luciferase (HEK-CMV-Luc2-Hygro)
Reagent: single siRNA against human genes, 0.8 pmol siRNA per well
Time to read-out: 72 h
Detection: 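Reporter luminescence and viable-cell signal on separate replicate plates, given as percent of non-targeting control and median/MAD z-scores, plus per-cell luciferase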
Scale: total luciferase, z-score: higher = more reporter protein produced
Rule for the call: 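An siRNA counts as active if its total luciferase robust z-score exceeds 3; genes with two or more such siRNAs out of three were retested with fresh siRNAs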
Meaning of the calls: active = raised luciferase; inactive = no rise
This is an unselected part of about 59,000 deposited reagents. About 1,510 of them (2.6%) count as active. 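Calls use total luciferase alone and ignore viability, so some active siRNAs may act by altering cell number.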 The numbers tell different reagents against one gene apart. Further read-outs or replicates are left out here.

With knock-down of OS9 #1 the results were total luciferase, z-score -0.364; inactive. Depletion of OS9 #2 resulted in: total luciferase, z-score 0.625; inactive. Against OS9 #3 the deposit lists total luciferase, z-score 2.36; inactive. Against MAN2A2 #1 the deposit lists total luciferase, z-score -1.93; inactive. MAN2A2 #2 scored total luciferase, z-score -0.344; inactive. Depletion of MAN2A2 #3 gave: total luciferase, z-score -0.117; inactive.

Depletion of LAG3 #1 came out at: total luciferase, z-score 1.51; inactive. Silencing of LAG3 #2 came out at: total luciferase, z-score -0.16; inactive. LAG3 #3 showed total luciferase, z-score -1.15; inactive. After knock-down of SNRNP25 #1 the results were total luciferase, z-score 0.734; inactive. Knock-down of SNRNP25 #2 came out at: total luciferase, z-score 1.02; inactive. For SNRNP25 #3, the entry reads total luciferase, z-score 0.282; inactive.

Against SCRIB #1, the entry reads total luciferase, z-score -1.12; inactive. SCRIB #2 showed total luciferase, z-score -0.699; inactive. Silencing of SCRIB #3 came out at: total luciferase, z-score -0.376; inactive. ADGRG2 #1 gave total luciferase, z-score -0.762; inactive. Against ADGRG2 #2, the entry reads total luciferase, z-score 0.716; inactive. With knock-down of ADGRG2 #3 the results were total luciferase, z-score -1.05; inactive.

For RECQL4 #1, the entry reads total luciferase, z-score 2.56; inactive. For RECQL4 #2, the values are total luciferase, z-score 0.297; inactive. RECQL4 #3 gave total luciferase, z-score 0.438; inactive.

Entries listed so far whose target name starts with R or r (3):
RECQL4 #1 — total luciferase, z-score = 2.56; Call = inactive
RECQL4 #2 — total luciferase, z-score = 0.297; Call = inactive
RECQL4 #3 — total luciferase, z-score = 0.438; Call = inactive
